PubChem BioAssay AID493246, Drosophila RNAi Screening Center, 2011
Test: 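Identify essential fly genes by loss of cell viability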 (primary screen). System: Drosophila Kc and S2R+ cells. Reagents: long dsRNA against Drosophila genes. Detection: 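Raw, unnormalised count of remaining cells in each well; per-plate z-scores of cell number underlie the calls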. Scale: Kc cell number and S2R+ cell number: higher = more cells remaining. Call rule: 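Active when the per-plate z-score of cell number is 3 or more in the direction of fewer cells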.
In all, the deposit lists about 21,000 reagents; shown is an unselected part of those with a known target gene and a result. Of all reagents, 429 (2%) are marked active. 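Values are raw and not normalised between plates; calls rest on per-plate z-scores that were not deposited.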 Reagents against one gene are numbered here. No sequences are given here. Not stated in the record: the amount of reagent, the time to read-out.

target gene	dsRNA no.	Kc cell number, rep 1	Kc cell number, rep 2	S2R+ cell number, rep 1	S2R+ cell number, rep 2	activity call
Pgant3	1	1.39e6	1.46e6	1.09e6	1.13e6	inactive
Cpsf100	1	5.91e5		8.73e5		inactive
CG3502	1	1.52e6	1.60e6	1.02e6	1.01e6	inactive
CG42538	1	1.36e6	1.48e6	1.14e6	1.27e6	inactive
qm	1	1.66e6	1.70e6	1.08e6	1.22e6	inactive
Cox10	1	1.26e6	1.27e6	1.05e6	1.18e6	inactive
CG15046	1	1.80e6	1.83e6	1.26e6	1.44e6	inactive
lncRNA:CR42646	1	1.49e6	1.62e6	1.01e6	1.31e6	inactive
CG8230	1	1.49e6	1.56e6	1.14e6	1.26e6	inactive
CG6356	1	1.48e6	1.46e6	9.79e5	1.07e6	inactive
CG17026	1	1.27e6	1.49e6	1.20e6	1.33e6	inactive
CG12490	1	1.52e6	1.61e6	1.35e6	1.39e6	inactive
Or85a	1	1.47e6	1.66e6	1.26e6	1.38e6	inactive
CG2157	1	1.57e6	1.52e6	1.03e6	1.17e6	inactive
CG33557	1	1.58e6	1.67e6	1.08e6	1.21e6	inactive
CG34244	1	1.42e6	1.49e6	1.13e6	1.32e6	inactive
CG18789	1	1.73e6	1.88e6	1.22e6	1.31e6	inactive
CG18666	1	1.74e6	1.84e6	1.20e6	1.34e6	inactive
Orct2	1	1.47e6	1.54e6	1.14e6	1.17e6	inactive
ZAP3	1	6.45e5		9.14e5		inactive
ZAP3	2	1.66e6	1.57e6	1.06e6	1.18e6	inactive
ZAP3	3	1.66e6	1.64e6	1.00e6	1.14e6	inactive
TwdlZ	1	1.33e6	1.53e6	1.14e6	1.17e6	inactive
hdly	1	1.25e6	1.18e6	1.11e6	1.25e6	inactive
CG9932	1	1.62e6	1.69e6	1.20e6	1.36e6	inactive
Lsd-2	1	5.99e5		8.61e5		inactive
CG5815	1	1.63e6	1.67e6	1.03e6	1.11e6	inactive
CG34224	1	1.51e6	1.48e6	1.05e6	1.21e6	inactive
Rga	1	1.41e6	1.54e6	1.32e6	1.43e6	inactive
CG11630	1	1.54e6	1.60e6	1.26e6	3.08e5	inactive
Cpr64Ac	1	1.66e6	1.46e6	1.06e6	1.38e6	inactive
CG31265	1	1.28e6	1.34e6	1.14e6	1.24e6	inactive
CG32486	1	1.35e6	1.36e6	1.05e6	8.84e5	inactive
CG32486	2	1.48e6	1.38e6	1.03e6	1.41e6	inactive
Dip-B	1	1.53e6	1.61e6	1.15e6	1.22e6	inactive
Nca	1	1.39e6	1.80e6	1.33e6	1.32e6	inactive
CG11836	1	1.57e6	1.48e6	1.21e6	1.32e6	inactive
CG10514	1	1.73e6	1.54e6	1.10e6	1.22e6	inactive
eEF1alpha2	1	1.27e6	1.63e6	1.16e6	1.14e6	inactive
eEF1alpha2	2	1.42e6	1.42e6	9.23e5	1.05e6	inactive
